Experimental data from PubChem BioAssay AID1671190 (National Center for Advancing Translational Sciences (NCATS), 2021).
Several values for one entry are separate records, joined by “and”; a condition that tells them apart may be missing. Equal entries are not always repeated. Screen size: about 580,000 compounds; about 6,100 (1.1%) were called active. Not shown: some 15% with an inconclusive outcome. The call rests on the fitted dose curve; in most records, active means well fitted inhibition curve with a large enough effect; inconclusive means small, poorly fitted or top-dose-only effect, or another doubt; inactive means no such curve, though single readings can be large or run the other way. This is a selection; strong and weak results do not stand in their true shares. Where no call is shown, the source filed none. A structure can be active in one record and inactive in another.

The chains behind the UniProt entries cited, without tags or fusion partners. Where a name states a change or a piece, a line headed by the entry shows the natural chain unless it says otherwise.
UniProt P18054: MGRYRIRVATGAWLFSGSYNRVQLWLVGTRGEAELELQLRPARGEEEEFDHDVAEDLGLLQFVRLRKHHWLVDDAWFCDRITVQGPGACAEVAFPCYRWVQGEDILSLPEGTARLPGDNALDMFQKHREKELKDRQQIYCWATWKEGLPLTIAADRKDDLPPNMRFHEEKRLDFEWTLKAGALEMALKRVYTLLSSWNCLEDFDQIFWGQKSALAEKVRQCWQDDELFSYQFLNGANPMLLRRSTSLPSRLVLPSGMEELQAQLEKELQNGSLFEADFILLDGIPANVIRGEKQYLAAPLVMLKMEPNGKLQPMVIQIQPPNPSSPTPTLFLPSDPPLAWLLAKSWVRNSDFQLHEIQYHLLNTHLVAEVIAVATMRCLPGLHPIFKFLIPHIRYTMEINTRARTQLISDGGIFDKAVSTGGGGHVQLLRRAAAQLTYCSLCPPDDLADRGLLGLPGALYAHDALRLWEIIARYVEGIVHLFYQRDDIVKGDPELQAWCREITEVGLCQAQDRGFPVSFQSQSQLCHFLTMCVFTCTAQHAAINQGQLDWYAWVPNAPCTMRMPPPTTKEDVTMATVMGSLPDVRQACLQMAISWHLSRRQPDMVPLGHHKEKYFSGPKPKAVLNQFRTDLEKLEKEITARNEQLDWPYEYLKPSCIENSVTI

Each compound was assayed against Polyunsaturated fatty acid lipoxygenase ALOX12 (Homo sapiens) (UniProt P18054) (assay: Primary qHTS assay for inhibitors of human arachidonate 12S-lipoxygenase (ALOX12): Round 2). Details: purified 12hLO, xylenol orange hydroperoxide absorbance; activity change, negative = inhibition: at 0.00344 µM (top of the series) unless noted.
In short: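 Purified human 12hLO at 150 nM in 25 mM Hepes, 0.01% Triton X-100, pH 7.0, preincubated 15 min at room temperature with compound. Reaction started with 40 uM arachidonic acid, 30 min at room temperature. Hydroperoxide measured by Fe-xylenol orange, 573/405 nm absorbance ratio.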
On the % scale 0 is the no-effect control and ±100 the full control effect; potency means the concentration at half of the fitted maximal effect.

Row | Compound | activity change, negative = inhibition | Potency
1 | CCN[C@H](C)Cc1cccc(C(F)(F)F)c1 | 1.7% [at 0.00599 µM] | 
2 | CC(C)c1cccc(C(C)C)c1O | -34.2% | 
3 | CN(C)CCc1c[nH]c2ccccc12 | -12.5% [at 0.0105 µM] | 
4 | CC[N+]1(C)CCCC(OC(=O)C(O)(c2ccccc2)c2ccccc2)C1 (configuration not stated) | 15.1% | 
5 | c1ccc2c(c1)OCC(C1=NCCN1)O2 (configuration not stated) | -25.6% | 
6 | c1ccc(Nc2ccc(Nc3ccccc3)cc2)cc1 |  | active: 14.1 µM
7 | CC[C@@H](CO)NC(=O)[C@@H]1C=C2c3cccc4c3c(cn4C)C[C@H]2N(C)C1 | 0.954% | 
8 | c1ccc(CN2CCNCC2)cc1 | 20.1% [at 0.0105 µM] | 
9 | CN1C(=O)CN=C(c2ccccc2)c2cc(Cl)ccc21 | -27.7% | 
10 | C[C@]12CC[C@H](O)CC1=CC[C@@H]1[C@@H]2CC[C@]2(C)C(=O)CC[C@@H]12 | -13.3% | 
11 | CC(Cc1ccccc1)NCc1ccccc1Cl (configuration not stated) | -27.8% | 
12 | COc1ccc2c(c1OC)CN1CCc3cc4c(cc3C1C2)OCO4 (configuration not stated) | -16.6% | 
13 | C[CH2][Hg][S]c1ccccc1C(=O)O | -32.9% | 
14 | Cc1ncc(CNC(=O)N(CCCl)N=O)c(N)n1 | 46.9% | 
15 | COc1cc(C[C@@H](C)N)c(OC)cc1C | -9.06% [at 0.00599 µM] | 
16 | O=c1[nH]c(=S)n(Cc2ccc(F)cc2)c(O)c1/C=N/N1CCCCCC1 |  | active: 35.5 µM
17 | CC(C)(C)NCC(O)c1cc(Cl)c(N)c(C(F)(F)F)c1 (configuration not stated) | 24.1% | 
18 | c1ccc(N2CCNCC2)cc1 | 21.4% | 
19 | Oc1ccc(Cl)cc1Cc1ccccc1 | 11.4% | 
20 | COc1ccc2c3c1O[C@H]1[C@@H](O)C=C[C@H]4[C@@H](C2)N(C)CC[C@@]341 | -0.486% [at 0.00599 µM] | 
21 | COc1cc(CC(C)N)cc(OC)c1OC (configuration not stated) | -74.4% [at 0.00599 µM] | 
22 | Cc1ccc(Cl)c(O)c1 | 1.03% | 
23 | COc1ccc2[nH]cc(CCN(C(C)C)C(C)C)c2c1 | 30.7% [at 0.00599 µM] | 
24 | CN1C[C@@H](NS(=O)(=O)N(C)C)C[C@@H]2c3cccc4c3c(cn4C)C[C@H]21 | -24.3% | 

Row | Compound | activity change, negative = inhibition | Potency
25 | CC(C)(O)C(Cl)(Cl)Cl | -33.2% | 
26 | Oc1cccc2cccnc12 | -0.0964% | 
27 | CC(C)(N)Cc1ccccc1Cl | 25.5% | 
28 | c1ccc2nc(N3CCNCC3)ccc2c1 | 16.7% | 
29 | CC(CCc1ccccc1)NC(C)C(O)c1ccc(O)cc1 (configuration not stated) | -27.8% | 
30 | CC1Sc2c(C(=O)O)c(=O)c3cc(F)c(N4CCNCC4)cc3n21 (configuration not stated) | -51.6% | 
31 | O=c1oc2ccccc2c(O)c1C(CC(O)c1ccc(-c2ccc(Br)cc2)cc1)c1ccccc1 (configuration not stated) | 43.6% | 
32 | CCCC[N+]1(C)[C@@H]2CC(OC(=O)[C@H](CO)c3ccccc3)C[C@H]1[C@@H]1O[C@@H]12 (some centres not stated) | 27.9% | 
33 | CCCOC(=O)c1cncn1C(C)c1ccccc1 (configuration not stated) | 6.2% | 
34 | Clc1cccc(N2CCNCC2)c1 | 5.79% | 
35 | Clc1ccc(CSC(Cn2ccnc2)c2ccc(Cl)cc2Cl)cc1 (configuration not stated) | -8.42% | 
36 | Oc1c(Br)cc(Br)cc1Br | 46.5% | 
37 | NNc1ccccc1 | 3.79% | 
38 | O=C(O)c1cc(Oc2ccc(C(F)(F)F)cc2Cl)ccc1[N+](=O)[O-] | 7.55% | 
39 | Cc1ncc2n1-c1ccc(Cl)cc1C(c1ccccc1F)=NC2 | 36.7% | 
40 | CC(C)=CC1C(C(=O)OCc2cccc(Oc3ccccc3)c2)C1(C)C (configuration not stated) | -17.9% | 
41 | C=CCC1(C(C)CC)C(=O)NC(=O)NC1=O (configuration not stated) | 11.3% | 
42 | CCC(=O)OC1(c2ccccc2)CCN(C)CC1 | -65.4% [at 0.00599 µM] | 
43 | C#CCOC(C(=O)OCCN(C)C)(c1ccccc1)c1ccccc1 | -15.5% | 
44 | COc1cccc(C(=O)CCN[C@@H](C)[C@H](O)c2ccccc2)c1 | -33.9% | 
45 | COc1ccc(OC)c(CC(C)N)c1 (configuration not stated) | -12% [at 0.00599 µM] | 
46 | CN1C(=S)CN=C(c2ccccc2)c2cc(Cl)ccc21 | 1.6% | 
47 | COc1ccc(C(=O)N2CCCC2=O)cc1 | -13.5% | 
48 | Nc1ccncc1 | -8.44% | 

Row | Compound | activity change, negative = inhibition | Potency
49 | C[N+]1(CCF)[C@@H]2CC[C@H]1CC(OC(=O)C(O)(c1ccccc1)c1ccccc1)C2 (some centres not stated) | 36.3% | 
50 | NC1(c2ccccc2)CCCCC1 | 13.3% [at 0.00599 µM] | 
51 | O=C1c2ccccc2C(=O)C1C(=O)C(c1ccccc1)c1ccccc1 | 9.24% | 
52 | COc1ccc(C(=O)C(C)(C)NO)cc1 |  | active: 17.8 µM and active: 5.01 µM
53 | C[N+]1(CCC(C(N)=O)(c2ccccc2)c2ccccc2)CCCCC1 | -17.5% | 
54 | COC(C)(C)CCCC(C)C/C=C/C(C)=C/C(=O)OC(C)C (configuration not stated) | 52.1% | 
55 | CC(Cc1ccc2c(c1)OCO2)NO (configuration not stated) | -0.922% [at 0.00599 µM] | 
56 | Cc1ccc(N=CN(C)C=Nc2ccc(C)cc2C)c(C)c1 | 7.67% | 
57 | CC(C)CC(N(C)C)C1(c2ccc(Cl)cc2)CCC1 (configuration not stated) | -8.34% | 
58 | C[C@H]1[C@@H]2Cc3ccc(O)cc3[C@@]1(C)CCN2C | -20.2% [at 0.0215 µM] | 
59 | C#C[C@]1(O)CC[C@H]2[C@@H]3CCC4=CC(=O)CC[C@]4(C)[C@H]3CC[C@@]21C | 23.2% | 
60 | CCN1CCCCC12Cc1ccccc1CN(C(=O)Cc1ccccc1)C2 (configuration not stated) |  | active: 6.31 µM
61 | CC(C)[N+](C)(CCC(C(N)=O)(c1ccccc1)c1ccccc1)C(C)C | -31% | 
62 | CC[C@H](O)C(C[C@H](C)N(C)C)(c1ccccc1)c1ccccc1 | -48.7% [at 0.00599 µM] | 
63 | CCN[C@@H](C)Cc1ccccc1 | -17.9% [at 0.0105 µM] | 
64 | CCO[C@H]1O[C@@H]2OC3(C)CC[C@H]4[C@H](C)CC[C@@H]([C@H]1C)[C@@]24OO3 | -33.1% | 
65 | COc1cc(CC(C)N)cc2c1OCO2 (configuration not stated) | -17.3% [at 0.00599 µM] | 
66 | CN1CCc2cc(Cl)c(O)cc2[C@H]2c3ccccc3CC[C@@H]21 | 7.89% | 
67 | CCN(CC)CCOC(=O)C(C)(c1ccccc1)c1ccccc1 | 4.12% | 
68 | Cc1ccc(-c2nc3ccc(C)cn3c2CC(=O)N(C)C)cc1 | 29.2% | 
69 | CC(C)N(CCC(C(N)=O)(c1ccccc1)c1ccccn1)C(C)C (configuration not stated) | -4.01% | 
70 | C=CCN1C[C@H](C)N([C@H](c2ccc(C(=O)N(CC)CC)cc2)c2cccc(OC)c2)C[C@H]1C | 32.6% | 
71 | N[C@@H](Cc1ccc(N(CCCl)CCCl)cc1)C(=O)O | 15.8% | 
72 | Clc1cccc(CNCCc2c[nH]c3ccccc23)c1 |  | active: 4.47 µM

A draw from above in order of molar mass, falling.
Row | Compound | activity change, negative = inhibition | Potency
49 | C[N+]1(CCF)[C@@H]2CC[C@H]1CC(OC(=O)C(O)(c1ccccc1)c1ccccc1)C2 (some centres not stated) | 36.3% | 
69 | CC(C)N(CCC(C(N)=O)(c1ccccc1)c1ccccn1)C(C)C (configuration not stated) | -4.01% | 
72 | Clc1cccc(CNCCc2c[nH]c3ccccc23)c1 |  | active: 4.47 µM
